{"source": "PubChem BioAssay AID1224827 | NIAID, 2016", "aim": "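Identify regulators of the macrophage TNF-alpha response to bacterial LPS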 (follow-up of hits)", "cell system": "RAW264.7 G9 mouse macrophage reporter clone", "knock-down reagent": "single siRNA against mouse genes, 100 nM siRNA", "duration": "siRNA for 2 days, then LPS about 16 h", "conditions": "bacterial lipopolysaccharide (LPS), 10 ng/ml, cells fixed after overnight (about 16 h) stimulation", "read-out": "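Imaged nuclear TNF reporter intensity, background removed, scaled per plate and to non-targeting control wells, as z-scores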", "reading the numbers": "TNF reporter z-score, mean: higher = stronger Tnf promoter reporter signal; gene median z, three same-vendor siRNAs: higher = stronger Tnf reporter signal for the gene", "rule for the call": "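An siRNA is called active when its mean z-score over replicates is at least +2 or at most -2; control wells get no call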", "note": "This is a random part of about 3,800 deposited reagents. About 2,200 of all reagents (57%) were called active. 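Active means a strong reporter change in either direction; calls are per siRNA, not per gene; qiagen siRNAs gave weaker effects.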 A number with no mark means an inactive call. The numbers tell different reagents against one gene apart. Not all columns of the deposit are shown. No sequences are given here."}
{"gene symbol": "Dap3 (death associated protein 3)", "reagent": 1, "TNF reporter z-score, mean": 0.855, "gene median z, three same-vendor siRNAs": -3.1}
{"gene symbol": "Dap3 (death associated protein 3)", "reagent": 2, "TNF reporter z-score, mean": "-3.42 (active)", "gene median z, three same-vendor siRNAs": -3.1}
{"gene symbol": "Dap3 (death associated protein 3)", "reagent": 3, "TNF reporter z-score, mean": "-3.32 (active)", "gene median z, three same-vendor siRNAs": -3.1}
{"gene symbol": "Dap3 (death associated protein 3)", "reagent": 4, "TNF reporter z-score, mean": -0.26, "gene median z, three same-vendor siRNAs": -0.771}
{"gene symbol": "Dap3 (death associated protein 3)", "reagent": 5, "TNF reporter z-score, mean": -0.771, "gene median z, three same-vendor siRNAs": -0.771}
{"gene symbol": "Dap3 (death associated protein 3)", "reagent": 6, "TNF reporter z-score, mean": -0.648, "gene median z, three same-vendor siRNAs": -0.771}
{"gene symbol": "Gdf1 (growth differentiation factor 1)", "reagent": 1, "TNF reporter z-score, mean": 0.887, "gene median z, three same-vendor siRNAs": -3.34}
{"gene symbol": "Gdf1 (growth differentiation factor 1)", "reagent": 2, "TNF reporter z-score, mean": "-3.34 (active)", "gene median z, three same-vendor siRNAs": -3.34}
{"gene symbol": "Gdf1 (growth differentiation factor 1)", "reagent": 3, "TNF reporter z-score, mean": "-4.56 (active)", "gene median z, three same-vendor siRNAs": -3.34}
{"gene symbol": "Bach2", "reagent": 1, "TNF reporter z-score, mean": -1.75, "gene median z, three same-vendor siRNAs": -2.36}
{"gene symbol": "Bach2", "reagent": 2, "TNF reporter z-score, mean": "-2.36 (active)", "gene median z, three same-vendor siRNAs": -2.36}
{"gene symbol": "Bach2", "reagent": 3, "TNF reporter z-score, mean": "-4.32 (active)", "gene median z, three same-vendor siRNAs": -2.36}
{"gene symbol": "Bach2", "reagent": 4, "TNF reporter z-score, mean": -0.886, "gene median z, three same-vendor siRNAs": -1.23}
{"gene symbol": "Bach2", "reagent": 5, "TNF reporter z-score, mean": -0.664, "gene median z, three same-vendor siRNAs": -1.23}
{"gene symbol": "Bach2", "reagent": 6, "TNF reporter z-score, mean": -1.58, "gene median z, three same-vendor siRNAs": -1.23}

Sorted by “gene median z, three same-vendor siRNAs” (descending): 2 of the entries above.
{"gene symbol": "Bach2", "reagent": 2, "TNF reporter z-score, mean": "-2.36 (active)", "gene median z, three same-vendor siRNAs": -2.36}
{"gene symbol": "Bach2", "reagent": 3, "TNF reporter z-score, mean": "-4.32 (active)", "gene median z, three same-vendor siRNAs": -2.36}
